Results are given in words; binding and its absence hold for the method and conditions named. In cells and extracts the contact can be indirect. Some results given as binding are weak or reduced against the parent protein; the word gives no strength.
Molecular target: Galectin-3 (rat (endogenous in Sprague-Dawley rat brain)) (UniProt P08699)
Assay: co-IP; rat brain tissue lysed in cell lysis buffer (Sham, ICH, ICH+shRNA-control, ICH+shRNA-Gal-3, ICH+LV-control, ICH+LV-Gal-3 groups); incubated 3 h at 4 °C with Gal-3 antibody or rabbit IgG (negative control), then 8 h at 4 °C with Protein A/G Plus-Agarose; washed five times; TLR-4 detected by western blot

Sequences of proteins named here, by UniProt entry; tags and fusion partners are left off.
UniProt P08699: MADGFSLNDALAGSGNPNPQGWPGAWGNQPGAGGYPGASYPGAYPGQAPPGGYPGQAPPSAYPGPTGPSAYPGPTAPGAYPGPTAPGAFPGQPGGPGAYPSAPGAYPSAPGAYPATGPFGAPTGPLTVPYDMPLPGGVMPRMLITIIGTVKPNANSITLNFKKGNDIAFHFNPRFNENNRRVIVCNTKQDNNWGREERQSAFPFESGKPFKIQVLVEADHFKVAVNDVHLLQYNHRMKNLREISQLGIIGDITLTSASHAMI

binding: binds
B1: TLR-4 (receptor, UniProt Q9QX05 26-835)
chain: NPCIEVLPNITYQCMDQNLSKIPHDIPYSTKNLDLSFNPLKILRSYSFTNFSQLQWLDLSRCEIETIEDKAWHGLNQLSTLVLTGNPIKSFSPGSFSGLTNLENLVAVETKMTSLEGFHIGQLISLKKLNVAHNLIHSFKLPEYFSNLTNLEHVDLSYNYIQTISVKDLQFLRENPQVNLSLDLSLNPIDSIQAQAFQGIRLHELTLRSNFNSSNVLKMCLQNMTGLHVHRLILGEFKNERNLESFDRSVMEGLCNVSIDEFRLTYINHFSDDIYNLNCLANISAMSFTGVHIKHIADVPRHFKWQSLSIIRCHLKPFPKLSLPFLKSWTLTTNREDISFGQLALPSLRYLDLSRNAMSFRGCCSYSDFGTNNLKYLDLSFNGVILMSANFMGLEELEYLDFQHSTLKKVTEFSVFLSLEKLLYLDISYTNTKIDFDGIFLGLISLNTLKMAGNSFKDNTLSNVFTNTTNLTFLDLSKCQLEQISRGVFDTLYRLQLLNMSHNNLLFLDPSHYKQLYSLRTLDCSFNRIETSKGILQHFPKSLAVFNLTNNSVACICEYQNFLQWVKDQKMFLVNVEQMKCASPIDMKASLVLDFTNSTCYIYKTIISVSVVSVLVVATVAFLIYHFYFHLILIAGCKKYSRGESIYDAFVIYSSQNEDWVRNELVKNLEEGVPRFQLCLHYRDFIPGVAIAANIIQEGFHKSRKVIVVVSRHFIQSRWCIFEYEIAQTWQFLSSRSGIIFIVLEKVEKSLLRQQVELYRLLSRNTYLEWEDNALGRHIFWRRLKKALLDGKALNPDETSEEEQEATTLT
